Results are given in words; binding and its absence hold for the method and conditions named. Binding seen in cells or lysates may run through a third protein. Some entries that bind do so weakly or less than the wild type.
Target: BMI1 (human (endogenous in LCL)) (UniProt P35226)
Test: co-IP; rabbit anti-BMI1 antibody (Bethyl A301-694A, 2 ug) used to immunoprecipitate BMI1 from extracts of LCLs infected with B95.8 EBV; rabbit anti-FLAG antibody as negative control; precipitates western blotted for EBNA3A, EBNA3B, EBNA3C; more than three independent experiments

Protein sequences, listed by entry. Tags and fused reporters are not part of them.
UniProt P35226: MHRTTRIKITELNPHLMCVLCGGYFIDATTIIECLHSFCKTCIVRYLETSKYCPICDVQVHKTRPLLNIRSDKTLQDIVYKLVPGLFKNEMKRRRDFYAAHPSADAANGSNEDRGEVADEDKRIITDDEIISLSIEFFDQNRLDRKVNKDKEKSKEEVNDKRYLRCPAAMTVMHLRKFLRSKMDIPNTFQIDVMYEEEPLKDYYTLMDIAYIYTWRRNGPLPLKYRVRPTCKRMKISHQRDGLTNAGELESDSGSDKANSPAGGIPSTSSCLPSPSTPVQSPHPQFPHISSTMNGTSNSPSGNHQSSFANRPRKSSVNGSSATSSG
UniProt P03203: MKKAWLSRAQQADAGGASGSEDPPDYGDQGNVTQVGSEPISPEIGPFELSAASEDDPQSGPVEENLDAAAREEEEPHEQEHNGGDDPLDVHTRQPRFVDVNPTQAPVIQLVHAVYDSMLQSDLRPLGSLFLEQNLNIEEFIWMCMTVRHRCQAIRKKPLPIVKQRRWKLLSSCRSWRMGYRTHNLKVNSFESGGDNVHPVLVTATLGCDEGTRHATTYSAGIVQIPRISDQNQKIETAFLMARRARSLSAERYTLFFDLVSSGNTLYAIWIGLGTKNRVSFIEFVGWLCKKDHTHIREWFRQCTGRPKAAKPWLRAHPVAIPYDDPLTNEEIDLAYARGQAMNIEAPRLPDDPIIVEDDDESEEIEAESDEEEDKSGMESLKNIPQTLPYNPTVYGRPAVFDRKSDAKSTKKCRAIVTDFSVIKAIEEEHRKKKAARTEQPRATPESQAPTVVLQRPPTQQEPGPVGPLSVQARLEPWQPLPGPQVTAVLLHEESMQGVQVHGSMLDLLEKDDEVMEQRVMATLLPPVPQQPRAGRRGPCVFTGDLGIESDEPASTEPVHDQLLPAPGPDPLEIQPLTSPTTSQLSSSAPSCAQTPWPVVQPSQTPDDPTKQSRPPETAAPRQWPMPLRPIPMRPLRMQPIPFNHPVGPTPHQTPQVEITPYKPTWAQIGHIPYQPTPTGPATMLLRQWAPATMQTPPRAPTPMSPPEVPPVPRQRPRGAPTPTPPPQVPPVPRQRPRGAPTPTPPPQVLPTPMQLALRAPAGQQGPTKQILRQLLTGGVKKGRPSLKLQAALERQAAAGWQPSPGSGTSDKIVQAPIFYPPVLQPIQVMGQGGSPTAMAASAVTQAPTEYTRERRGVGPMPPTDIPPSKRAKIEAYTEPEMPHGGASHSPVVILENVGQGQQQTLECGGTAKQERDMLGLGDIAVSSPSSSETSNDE
UniProt P03204: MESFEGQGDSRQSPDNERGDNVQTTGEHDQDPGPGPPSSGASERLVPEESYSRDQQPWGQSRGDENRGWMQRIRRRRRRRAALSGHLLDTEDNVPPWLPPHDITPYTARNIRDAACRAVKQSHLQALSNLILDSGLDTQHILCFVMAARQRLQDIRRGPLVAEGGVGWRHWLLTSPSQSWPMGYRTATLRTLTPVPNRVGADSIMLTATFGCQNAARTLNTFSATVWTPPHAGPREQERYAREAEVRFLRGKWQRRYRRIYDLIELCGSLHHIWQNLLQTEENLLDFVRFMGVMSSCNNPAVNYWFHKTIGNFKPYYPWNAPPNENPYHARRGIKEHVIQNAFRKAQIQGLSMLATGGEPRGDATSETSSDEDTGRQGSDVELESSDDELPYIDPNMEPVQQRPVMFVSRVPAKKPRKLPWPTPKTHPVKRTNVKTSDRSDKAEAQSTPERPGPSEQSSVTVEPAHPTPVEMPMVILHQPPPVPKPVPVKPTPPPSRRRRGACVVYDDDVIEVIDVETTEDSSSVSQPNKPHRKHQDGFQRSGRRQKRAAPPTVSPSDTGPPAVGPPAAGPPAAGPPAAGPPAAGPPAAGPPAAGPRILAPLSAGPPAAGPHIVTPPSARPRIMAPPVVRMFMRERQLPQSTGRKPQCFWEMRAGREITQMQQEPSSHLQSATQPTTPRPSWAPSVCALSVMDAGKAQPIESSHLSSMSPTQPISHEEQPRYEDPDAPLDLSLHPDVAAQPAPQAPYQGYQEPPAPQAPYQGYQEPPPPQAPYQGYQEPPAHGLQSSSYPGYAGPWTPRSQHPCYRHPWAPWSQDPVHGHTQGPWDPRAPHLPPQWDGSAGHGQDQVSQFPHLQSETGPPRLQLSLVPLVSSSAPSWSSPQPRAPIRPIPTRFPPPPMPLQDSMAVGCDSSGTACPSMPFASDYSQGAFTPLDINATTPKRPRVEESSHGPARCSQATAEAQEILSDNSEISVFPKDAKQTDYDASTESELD

Substance	binding
Epstein-Barr virus nuclear antigen EBNA3B (from UniProt P03203 1-938)	no binding
Epstein-Barr virus nuclear antigen EBNA3C (from UniProt P03204 1-992)	binds

Source: PMC6451101
